No constants are given. Whether binding was seen depends on the method and setting.
Legend:
[1] = target: T1, T25-AtcC (Shewanella oneidensis MR-1) (UniProt Q8EFW9); assay: two-hybrid; bacterial two-hybrid (T18 and T25 domains of B. pertussis adenylate cyclase) in E. coli Bth101, overnight culture at 28 °C with 1 mM IPTG, β-galactosidase activity
T1 sequence: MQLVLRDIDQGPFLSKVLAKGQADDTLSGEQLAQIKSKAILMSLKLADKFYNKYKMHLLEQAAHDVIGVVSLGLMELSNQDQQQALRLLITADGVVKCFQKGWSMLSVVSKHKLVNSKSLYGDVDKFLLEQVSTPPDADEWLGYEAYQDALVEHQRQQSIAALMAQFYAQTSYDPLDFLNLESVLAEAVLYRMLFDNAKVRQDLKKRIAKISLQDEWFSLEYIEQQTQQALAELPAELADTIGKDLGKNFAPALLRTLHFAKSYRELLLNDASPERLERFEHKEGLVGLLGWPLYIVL

[2] = target: T25 domain alone (Bordetella pertussis); assay: as above

## T18 domain alone (Bordetella pertussis) (domain or fragment)
[1]
  binding: no binding

B1: AtcJ-6His (Adaptation to cold protein J, SO_1850) (natural protein, Shewanella oneidensis MR-1, UniProt Q8EFW5 1-94, looked up)
chain: MINHFSVLGIKPSAKEDDIKKAYRRLSNKYHPDKLLGASDEEKEQASQQLERVKKAYEVLSDPKLRNAFIRDFNNVIVTDPNSAMRELWDQFYP
notes: AtcJ (SO_1850) of Shewanella oneidensis MR-1, a 94-amino acid J-domain protein (J-domain 1-73 and a C-terminal extension of 21 amino acids); also called wild-type AtcJ; AtcJ-WT
[2]
  binding: no binding

Reference: paper PMC6715715 (Communications Biology, 2019)
